Earlier results as cited in patent US20250205249A1, “COMPOSITION FOR USE IN ENHANCING, BOOSTING, RESTORING AND/OR PREVENTING THE DECLINE OF COGNITIVE FUNCTIONS, ADJUVANT COMPOSITION, METHOD FOR USING THE COMPOSITION OR ADJUVANT COMPOSITION, AND KIT HAVING THE COMPOSITION OR ADJUVANT COMPOSITION” (Instytut Badawczy Innowacyjno Rozwojowy "Biotomed" Sp. Z O.O, priority 2023, published 2025).
At least one structure is not confirmed: it was looked up by name or label, or the drawing left a doubt.

Conditions: cited from earlier work

Structure (SMILES) | Digestion in the small intestine (in words)
OC[C@H]1O[C@@H]2O[C@H]3[C@H](O)[C@@H](O)[C@@H](O[C@H]4[C@H](O)[C@@H](O)[C@@H](O[C@H]5[C@H](O)[C@@H](O)[C@@H](O[C@H]6[C@H](O)[C@@H](O)[C@@H](O[C@H]7[C@H](O)[C@@H](O)[C@@H](O[C@H]8[C@H](O)[C@@H](O)[C@@H](O[C@H]1[C@H](O)[C@H]2O)O[C@@H]8CO)O[C@@H]7CO)O[C@@H]6CO)O[C@@H]5CO)O[C@@H]4CO)O[C@@H]3CO [β-cyclodextrin] | digested much more poorly
OC[C@H]1O[C@@H]2O[C@H]3[C@H](O)[C@@H](O)[C@@H](O[C@H]4[C@H](O)[C@@H](O)[C@@H](O[C@H]5[C@H](O)[C@@H](O)[C@@H](O[C@H]6[C@H](O)[C@@H](O)[C@@H](O[C@H]7[C@H](O)[C@@H](O)[C@@H](O[C@H]8[C@H](O)[C@@H](O)[C@@H](O[C@H]9[C@H](O)[C@@H](O)[C@@H](O[C@H]1[C@H](O)[C@H]2O)O[C@@H]9CO)O[C@@H]8CO)O[C@@H]7CO)O[C@@H]6CO)O[C@@H]5CO)O[C@@H]4CO)O[C@@H]3CO [γ-cyclodextrin] | easily digested
